Measured values taken from PubChem BioAssay AID590 (National Center for Advancing Translational Sciences (NCATS), 2007).
Several values for one entry are separate records, joined by “and”; a condition that tells them apart may be missing. Equal entries are not always repeated. Hit rate of the full screen: of about 59,000 compounds, about 6,500 (11%) were called active. The inconclusive results got no clear call from the source; some entries with a clear call stand among them for comparison. Rule as the data show it: active = max dye-equivalent concentration above about 10 nM; inconclusive = mostly about 1.1 nM to 9.6 nM; inactive = weaker than that. Peptide text beside a SMILES is read from it.

Experiment: qHTS Assay for Spectroscopic Profiling in A350 Spectral Region
Conditions: Compound autofluorescence, 340/450 nm, Alexa 350 dye-equivalents; active compounds read high

Row | Structure (SMILES) | max dye-equivalent concentration
1 | COc1ccc2[nH]c(C(=O)O)c(CCNC(C)=O)c2c1 | inactive
2 | CCN1CCCC1Cn1cnc2c([nH]c3ccc(C)cc32)c1=O (stereo not drawn) | active: 1.6e-08 M
3 | Cc1cc(-c2[nH]nc3c2C(c2ccsc2)C(C#N)=C(N)O3)c(C)s1 (stereo not drawn) | inconclusive: 3.1e-09 M
4 | O=C(CCC1COc2ccccc2O1)Nc1ccccn1 (stereo not drawn) | inactive
5 | COc1ccc(CCNS(=O)(=O)c2cccc3nsnc23)cc1OC | inconclusive: 5.3e-09 M
6 | COC(=O)c1ccc(Oc2c(C)oc3c(CN4CCN(C)CC4)c(O)ccc3c2=O)cc1 | active: 2.7e-06 M
7 | COc1cccc(Nc2ncc3nc(-c4ccc(F)cc4)c(=O)n(C)c3n2)c1 | inconclusive: 5.3e-09 M
8 | C=CCn1c(SCC(=O)N2CCOCC2)nc2sc3c(c2c1=O)CCCC3 | inconclusive: 1.8e-09 M
9 | O=C1CCCC2=C1C(c1ccc3c(c1)OCO3)c1c([nH]n(-c3ccccc3)c1=O)N2 (stereo not drawn) | inactive
10 | COc1ccccc1OCC(=O)Nc1oc(-c2ccccc2)c(-c2ccccc2)c1C#N | inactive
11 | Cn1cc(-c2nc3cncnc3n(Cc3ccccc3Cl)c2=O)c2ccccc21 | inconclusive: 2.1e-09 M
12 | COc1ccc(N2CCN(S(=O)(=O)c3ccc(C(=O)NC4CCCC4)cc3)CC2)cc1 | inconclusive: 1.3e-09 M
13 | CN(C)Cc1ccccc1-c1nc(NC2CCNCC2)c2ccccc2n1 | inactive
14 | c1ccc(CNc2nc(-c3ccc4c(c3)OCO4)nc3ccccc23)cc1 | inactive
15 | COc1ccc(S(=O)(=O)Nc2ccc(S(=O)(=O)Nc3nc(C)cc(C)n3)cc2)cc1OC | inactive
16 | N#CC12CCCCC1CC1CCCCC1(C#N)N2Cc1ccccn1 (stereo not drawn) | active: 3.6e-06 M
17 | O=C(CCN1C(=O)C2C3C=CC(C3)C2C1=O)NCCN1CCCc2ccccc21 (stereo not drawn) | inconclusive: 3e-09 M
18 | CS[C@]12C(=O)C[C@]3(C)[C@@H](CC[C@@]3(O)C(=O)CO)[C@@H]1CCC1=CC(=O)CC[C@]12C | inactive
19 | O=c1cnc2cnc(N3CCOCC3)nc2n1Cc1ccc(F)cc1 | inconclusive: 5.2e-09 M
20 | O=C(CSc1nnc(-c2cccs2)n1-c1ccccc1)N1CCc2ccccc21 | inactive
21 | O=C1Nc2ccccc2N=C(c2ccccc2)C1N1CCOCC1 (stereo not drawn) | inconclusive: 3.7e-09 M
22 | Cc1nc(SCC(=O)NCC2CCCO2)c2oc3ccccc3c2n1 (stereo not drawn) | inconclusive: 1.9e-09 M

Row | Structure (SMILES) | max dye-equivalent concentration
23 | O=C(c1csnn1)N1CCC2(CCCN(c3ncccn3)C2)CC1 | inactive
24 | CC1CCC(NC(=O)C2c3ccccc3C(=O)N2CCCN2CCOCC2)CC1 (stereo not drawn) | inactive
25 | CC(C)C1N=C2c3ccccc3N=C(SCC(=O)c3ccc(O)c(O)c3)N2C1=O (stereo not drawn) | inconclusive: 4.9e-09 M
26 | CCOc1ccc(-n2c3nc4ccccc4nc3c3c(=O)n(Cc4ccco4)cnc32)cc1 | inconclusive: 5.9e-09 M
27 | COc1cc(-c2nnc3sc(-c4cccnc4)nn23)cc(OC)c1OC | active: 1.1e-07 M
28 | CCC(c1nnnn1C(C)C)N1CCN(C2CCCC2)CC1 (stereo not drawn) | inactive
29 | COc1ccc(OC)c(-n2c(CN3CCC(C(N)=O)CC3)nc3ccccc3c2=O)c1 | inconclusive: 2e-09 M
30 | Cc1cccc2cc(CN(CC3CCCO3)C(c3nnnn3Cc3ccco3)C(C)C)c(=O)[nH]c12 (stereo not drawn) | inconclusive: 8.5e-09 M
31 | COc1ccc(CNC(=O)c2cccc(N(C)C)c2)cc1 | active: 1.2e-08 M
32 | CNCc1cc2ccc(C)cc2[nH]c1=O | inconclusive: 6.9e-09 M
33 | COc1ccc2cc(CN(CCCN3CCOCC3)Cc3nnnn3C3CCCC3)c(=O)[nH]c2c1 | inconclusive: 8.7e-09 M
34 | CCCC(=O)N(c1ccc2oc(=O)sc2c1)S(=O)(=O)c1cccs1 | inactive
35 | CCOc1ccc(C2/C(=C(/O)c3ccc(OC)cc3)C(=O)C(=O)N2c2cc(C)on2)cc1OC (stereo not drawn) | inconclusive: 1.1e-09 M
36 | COc1ccc(S(=O)(=O)N2CCC(C(=O)NCc3ccco3)CC2)cc1 | inconclusive: 2.3e-09 M
37 | COC(=O)c1sc(N2C(=O)c3oc4ccccc4c(=O)c3C2c2cccs2)nc1C (stereo not drawn) | active: 1.8e-08 M
38 | Nc1nnc(SCc2ccccc2F)n1-c1ccccc1 | inconclusive: 1.7e-09 M
39 | Cn1c(=O)c(-c2ccc(F)c(F)c2)nc2cncnc21 | inconclusive: 3e-09 M
40 | CCCCn1nnnc1NCc1cccc(OC)c1OC | inactive
41 | CCSc1nnc(NC(=O)C2(C)Cc3ccccc3C(=O)O2)s1 (stereo not drawn) | inconclusive: 2.2e-09 M
42 | Cc1ccc(S(=O)(=O)C(C#N)c2nc3ccccc3nc2N2CCCC2)cc1C (stereo not drawn) | active: 1.9e-07 M
43 | C[n+]1cc2c3c(ccc2c2ccc4cc5c(cc4c21)OCO5)OCO3 | inconclusive: 3.4e-09 M and inconclusive: 2.5e-09 M
44 | O=C(Cn1cnc2c(cnn2-c2ccc(Cl)cc2)c1=O)NCCc1ccccc1 | inconclusive: 7.9e-09 M

Row | Structure (SMILES) | max dye-equivalent concentration
45 | CCOC(=O)C(NC(=O)c1ccc(OC)cc1)(N1CCOCC1)C(F)(F)F (stereo not drawn) | inconclusive: 1.5e-09 M
46 | COc1ccc(NC(=O)CSc2nc(-c3ccncc3)nn2CC(=O)N2CCCC2)cc1 | inconclusive: 1.7e-09 M
47 | COC(=O)c1ccccc1NC(=O)c1noc2c1CC(C(C)(C)C)CC2 (stereo not drawn) | inactive
48 | O=C(CSc1ncc(-c2ccccc2)n1CC1CCCO1)N1CCCCC1 (stereo not drawn) | inconclusive: 1.5e-09 M
49 | CCCN(CCC)CCCNC(=O)c1cn(CCOC)c(=O)c2c1c1ccccc1n2C | active: 4.6e-07 M
50 | CN=C1SC(CC(=O)Nc2sc(C)c(C)c2C(=O)OC)C(=O)N1C (stereo not drawn) | inconclusive: 1.1e-09 M
51 | CCOc1cc(NC(=O)C2CCCCC2)c(OCC)cc1NC(=O)c1ccco1 | inconclusive: 8.9e-09 M
52 | O=C(O)c1cccc(CN2C(=O)SC(Nc3ccccc3)C2=O)c1 (stereo not drawn) | active: 6.2e-08 M
53 | CSc1ccccc1NC(=O)c1c(C)noc1C | active: 5.6e-06 M
54 | CCCCn1c(SCC(=O)N2CC(=O)Nc3ccccc32)nnc1-c1ccoc1C | inconclusive: 1.1e-09 M
55 | COc1ccc(S(=O)(=O)N(C)CC(=O)Nc2ccccc2C(F)(F)F)cc1 | inconclusive: 1.1e-09 M
56 | Cc1ccc(CCNC(=O)CCNS(=O)(=O)c2ccc3c(c2)c(=O)n(C)c(=O)n3C)cc1 | inconclusive: 2.5e-09 M
57 | CCn1cnc2cc(NCc3ccc(C)cc3)ccc21 | inactive
58 | CC(C)OC(=O)CCCN1C(=O)c2ccc(N)cc2C1=O | inconclusive: 1.5e-09 M
59 | O=C(Cc1c(O)c2ccccc2[nH]c1=O)NC1CCCCCC1 | inactive
60 | O=c1oc2ccccc2n1CSc1nc2ccccc2s1 | inconclusive: 3.2e-09 M
61 | Cc1cccc(NC(=O)CSc2nnc(-c3ccccc3)n2N)c1 | inconclusive: 4e-09 M
62 | O=C(OCc1nnc(-c2ccccc2)o1)c1cn(-c2ccccc2)nc1-c1ccccc1 | inactive
63 | Cc1ccc(S(=O)(=O)NCc2ccc(C(=O)N3CCN(c4ccccn4)CC3)cc2)cc1 | inconclusive: 2.7e-09 M
64 | COc1ccc(Cn2c(-c3ccco3)nc3oc4cc(OC)ccc4c(=O)c3c2=O)cc1 | inconclusive: 1.5e-09 M
65 | CCCCCCCCCCCCCCCC(O)C(N)CO (stereo not drawn) | inconclusive: 5.8e-09 M
66 | Cn1c(-c2ccco2)nc2cc3ccccc3cc21 | active: 1.1e-06 M

Row | Structure (SMILES) | max dye-equivalent concentration
67 | Cc1ccc(C(=O)CCNc2ccc(Br)cc2)o1 | inconclusive: 9.2e-09 M
68 | COc1ccc(C(C(=O)NC2CCCCC2)N(CC2CCCO2)C(=O)CNC(=O)c2ccco2)cc1 (stereo not drawn) | inconclusive: 1.2e-09 M
69 | CCCC(NC(=O)CNC(=O)C(C)(C)C)C(=O)O (stereo not drawn) (HELM PEPTIDE1{[CC(C)(C)C(=O)[*:2]].G.[CCCC(N[*:1])C(=O)O]}$$$$V2.0) | inconclusive: 3.5e-09 M
70 | COc1ccc2oc(=O)c(-c3nnc(NCc4ccco4)s3)cc2c1 | inconclusive: 8.8e-09 M
71 | Cc1oc(C)c(C(=O)Nc2ccc(CC(=O)O)cc2)c1C(=O)Nc1ccc(CC(=O)O)cc1 | inactive
72 | O=C(Nc1ccc(Cl)cc1C(=O)Nc1ccncc1)c1ccco1 | inconclusive: 2.2e-09 M
73 | O=C(CSc1nnc(-c2cccs2)o1)N1CCCc2ccccc21 | inactive
74 | COc1cccc2sc(NC(=O)c3ccc(S(=O)(=O)N4CCOCC4)cc3)nc12 | inactive
75 | CC(=O)c1cccc(N(CC(=O)O)S(C)(=O)=O)c1 | inconclusive: 4.8e-09 M
76 | CCc1cccc2c(C#N)cn(CC(=O)NCCOC)c12 | inconclusive: 2.9e-09 M
77 | Cn1c(SCc2ccc(C#N)cc2)nnc1-c1cccc(Cl)c1 | inconclusive: 7e-09 M
78 | COc1ccc(-c2noc(-c3cccc(Cl)c3)n2)cc1OC | inactive
79 | COC(=O)c1c[nH]n2c(=O)cc(C)nc12 | inconclusive: 3.4e-09 M
80 | C=CCn1c(C(C)NC(=O)CCC)nc2ccccc21 (stereo not drawn) | inactive
81 | O=C(CSc1nnc(CNC(=O)c2ccccc2F)o1)c1ccc(Cl)cc1 | inconclusive: 2.5e-09 M
82 | N#CCCN(Cc1cccnc1)C(=O)Nc1cccc(Cl)c1 | inactive
83 | CCN1CCN(c2ncc(C(=O)Nc3cc(Cl)ccc3OC)c3ccccc23)CC1 | inconclusive: 4.9e-09 M
84 | CS(=O)(=O)N(CC(=O)N1CCCCC1)c1sc2c(c1C#N)CCCC2 | inactive
85 | c1nc(NCCN2CCOCC2)c2cc(-c3ccc4c(c3)OCO4)ccc2n1 | inactive
86 | O=C(Oc1cccc(Oc2ccccc2)c1)N1CCOCC1 | inconclusive: 2.4e-09 M
87 | COc1ccccc1CNc1nc2nc3c(c(=O)n2[nH]1)CCC3 | inconclusive: 1.7e-09 M
88 | CC(=O)OC[C@H]1O[C@@H](n2ncc(=O)[nH]c2=O)[C@H](OC(C)=O)[C@@H]1OC(C)=O | inconclusive: 4e-09 M

Among those listed so far, these have a COOH group:
Row | Structure (SMILES) | max dye-equivalent concentration
1 | COc1ccc2[nH]c(C(=O)O)c(CCNC(C)=O)c2c1 | inactive
52 | O=C(O)c1cccc(CN2C(=O)SC(Nc3ccccc3)C2=O)c1 (stereo not drawn) | active: 6.2e-08 M
69 | CCCC(NC(=O)CNC(=O)C(C)(C)C)C(=O)O (stereo not drawn) (HELM PEPTIDE1{[CC(C)(C)C(=O)[*:2]].G.[CCCC(N[*:1])C(=O)O]}$$$$V2.0) | inconclusive: 3.5e-09 M
71 | Cc1oc(C)c(C(=O)Nc2ccc(CC(=O)O)cc2)c1C(=O)Nc1ccc(CC(=O)O)cc1 | inactive
75 | CC(=O)c1cccc(N(CC(=O)O)S(C)(=O)=O)c1 | inconclusive: 4.8e-09 M
